Experimental data published in publication PMC6988362.
Results are given in words; binding and its absence hold for the method and conditions named. In cells and extracts the contact can be indirect. Some entries that bind do so weakly or less than the wild type. Blank lines part the entries; values can stand above or below the substance they belong to.

Chains of the proteins cited; added tags and fusions are not shown. Residues count along the entry.
UniProt Q9QX01: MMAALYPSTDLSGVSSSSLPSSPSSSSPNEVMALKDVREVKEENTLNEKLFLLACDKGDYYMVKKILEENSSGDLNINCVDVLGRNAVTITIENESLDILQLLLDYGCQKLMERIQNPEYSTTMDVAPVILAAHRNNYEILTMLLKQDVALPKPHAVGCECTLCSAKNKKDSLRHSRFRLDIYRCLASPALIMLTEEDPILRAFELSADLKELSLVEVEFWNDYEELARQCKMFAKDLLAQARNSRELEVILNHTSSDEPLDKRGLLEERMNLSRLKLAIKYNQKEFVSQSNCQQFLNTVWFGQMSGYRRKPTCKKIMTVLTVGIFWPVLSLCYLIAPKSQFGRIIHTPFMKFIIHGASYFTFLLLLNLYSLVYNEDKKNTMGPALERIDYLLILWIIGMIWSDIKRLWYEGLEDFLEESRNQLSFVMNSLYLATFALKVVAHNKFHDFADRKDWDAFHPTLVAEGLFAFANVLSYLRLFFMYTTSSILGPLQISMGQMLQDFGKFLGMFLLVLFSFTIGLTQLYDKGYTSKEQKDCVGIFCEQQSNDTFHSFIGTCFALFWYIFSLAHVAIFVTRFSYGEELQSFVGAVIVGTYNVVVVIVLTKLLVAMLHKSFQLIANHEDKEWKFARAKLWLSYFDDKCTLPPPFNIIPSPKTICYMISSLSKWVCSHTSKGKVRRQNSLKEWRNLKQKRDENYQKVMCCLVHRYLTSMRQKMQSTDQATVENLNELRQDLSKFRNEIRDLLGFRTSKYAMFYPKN
UniProt P48995: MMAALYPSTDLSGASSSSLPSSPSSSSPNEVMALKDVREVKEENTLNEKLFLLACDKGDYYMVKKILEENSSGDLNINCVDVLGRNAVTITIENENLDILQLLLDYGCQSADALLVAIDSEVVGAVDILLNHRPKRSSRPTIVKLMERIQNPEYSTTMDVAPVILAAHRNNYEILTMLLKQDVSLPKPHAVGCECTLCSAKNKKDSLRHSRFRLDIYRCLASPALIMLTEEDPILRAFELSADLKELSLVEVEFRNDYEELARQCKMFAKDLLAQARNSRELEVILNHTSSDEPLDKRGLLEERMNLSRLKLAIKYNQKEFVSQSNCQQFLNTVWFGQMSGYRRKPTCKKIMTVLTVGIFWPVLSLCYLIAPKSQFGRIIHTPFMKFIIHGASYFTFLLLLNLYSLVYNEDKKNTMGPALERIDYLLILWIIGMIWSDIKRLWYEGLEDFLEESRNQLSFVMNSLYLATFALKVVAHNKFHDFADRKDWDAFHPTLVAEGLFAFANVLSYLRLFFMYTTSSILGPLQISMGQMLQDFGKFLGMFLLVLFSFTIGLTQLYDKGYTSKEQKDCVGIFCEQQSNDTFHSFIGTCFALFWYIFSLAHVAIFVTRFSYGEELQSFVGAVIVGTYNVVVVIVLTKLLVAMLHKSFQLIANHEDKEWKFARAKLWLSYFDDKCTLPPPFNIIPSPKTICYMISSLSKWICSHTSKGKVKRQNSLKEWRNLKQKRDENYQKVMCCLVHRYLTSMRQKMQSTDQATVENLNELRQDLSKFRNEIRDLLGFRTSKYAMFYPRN
UniProt P23385, residues 19-1199: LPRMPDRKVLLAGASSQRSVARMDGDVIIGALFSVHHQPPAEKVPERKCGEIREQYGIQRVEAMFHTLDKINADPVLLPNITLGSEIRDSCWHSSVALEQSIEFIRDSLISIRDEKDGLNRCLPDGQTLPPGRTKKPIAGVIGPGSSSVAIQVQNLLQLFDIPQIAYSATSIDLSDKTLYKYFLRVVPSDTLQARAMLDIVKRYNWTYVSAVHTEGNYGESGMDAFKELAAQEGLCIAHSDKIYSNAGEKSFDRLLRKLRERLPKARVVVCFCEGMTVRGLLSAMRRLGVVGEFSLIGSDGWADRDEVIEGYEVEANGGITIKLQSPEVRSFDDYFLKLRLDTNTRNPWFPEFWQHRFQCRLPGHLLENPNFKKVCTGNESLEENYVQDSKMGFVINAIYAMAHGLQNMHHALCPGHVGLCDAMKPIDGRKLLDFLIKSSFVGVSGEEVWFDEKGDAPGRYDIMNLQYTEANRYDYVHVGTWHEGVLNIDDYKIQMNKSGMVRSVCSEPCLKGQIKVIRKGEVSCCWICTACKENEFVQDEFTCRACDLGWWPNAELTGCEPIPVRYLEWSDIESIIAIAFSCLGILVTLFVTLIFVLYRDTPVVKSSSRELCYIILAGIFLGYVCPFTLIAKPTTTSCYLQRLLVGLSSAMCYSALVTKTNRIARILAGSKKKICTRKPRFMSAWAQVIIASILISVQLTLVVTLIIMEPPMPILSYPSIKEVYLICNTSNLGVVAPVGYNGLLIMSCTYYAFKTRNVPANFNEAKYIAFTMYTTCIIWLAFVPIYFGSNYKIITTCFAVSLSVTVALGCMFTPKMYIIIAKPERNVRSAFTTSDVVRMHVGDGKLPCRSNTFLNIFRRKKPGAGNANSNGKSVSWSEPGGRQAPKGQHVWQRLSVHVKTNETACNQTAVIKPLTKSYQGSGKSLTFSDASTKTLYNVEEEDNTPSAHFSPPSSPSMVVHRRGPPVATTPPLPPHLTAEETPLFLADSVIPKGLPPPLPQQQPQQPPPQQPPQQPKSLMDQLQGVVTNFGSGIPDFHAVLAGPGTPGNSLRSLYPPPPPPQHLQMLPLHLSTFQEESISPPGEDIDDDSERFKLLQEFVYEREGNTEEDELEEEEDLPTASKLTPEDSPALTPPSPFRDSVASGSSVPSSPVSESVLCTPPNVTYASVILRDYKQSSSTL
UniProt Q9UBN4: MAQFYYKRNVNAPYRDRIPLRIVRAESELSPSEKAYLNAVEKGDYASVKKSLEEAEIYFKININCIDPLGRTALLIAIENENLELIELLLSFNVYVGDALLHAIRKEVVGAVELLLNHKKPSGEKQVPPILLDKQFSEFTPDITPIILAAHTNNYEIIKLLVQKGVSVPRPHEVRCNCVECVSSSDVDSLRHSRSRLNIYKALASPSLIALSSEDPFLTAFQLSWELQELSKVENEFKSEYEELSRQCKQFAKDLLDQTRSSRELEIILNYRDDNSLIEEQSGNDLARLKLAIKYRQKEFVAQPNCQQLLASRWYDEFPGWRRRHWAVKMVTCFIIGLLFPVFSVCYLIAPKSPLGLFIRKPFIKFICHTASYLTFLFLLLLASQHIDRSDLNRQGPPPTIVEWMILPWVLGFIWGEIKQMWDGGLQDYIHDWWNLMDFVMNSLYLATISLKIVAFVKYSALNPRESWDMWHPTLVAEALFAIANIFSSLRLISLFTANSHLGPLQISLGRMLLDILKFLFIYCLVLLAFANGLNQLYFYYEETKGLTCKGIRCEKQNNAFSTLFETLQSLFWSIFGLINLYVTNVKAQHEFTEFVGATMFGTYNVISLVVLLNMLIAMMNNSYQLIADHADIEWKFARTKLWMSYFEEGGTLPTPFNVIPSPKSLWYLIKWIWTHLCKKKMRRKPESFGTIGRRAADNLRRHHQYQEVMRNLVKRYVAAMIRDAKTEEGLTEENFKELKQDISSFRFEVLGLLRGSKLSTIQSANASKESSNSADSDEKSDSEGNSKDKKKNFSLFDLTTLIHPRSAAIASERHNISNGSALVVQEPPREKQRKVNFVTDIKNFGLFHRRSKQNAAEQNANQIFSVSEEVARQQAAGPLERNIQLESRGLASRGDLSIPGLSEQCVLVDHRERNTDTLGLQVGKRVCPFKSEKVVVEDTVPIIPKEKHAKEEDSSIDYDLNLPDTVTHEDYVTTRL

Experiments:
[1] = target: TRPC1, endogenous in hippocampus (rat (endogenous in hippocampus)) (UniProt Q9QX01); experiment: co-IP; hippocampus homogenate in PBS, 1% Triton X-100; 1 mg protein precipitated with rabbit polyclonal anti-TRPC1 and protein-G sepharose at 4 °C; control with antibody preadsorbed with antigen peptide; Western blot with anti-mGluR1a
[2] = target: FLAG-tagged TRPC1, expressed from pcDNA3.1-FLAG-TRPC1 in HEK-293 cells (UniProt P48995); experiment: co-IP; HEK-293 cells transiently co-transfected; lysis buffer 50 mM Tris pH 7.4, 120 mM NaCl, 1% Triton X-100, 2 mM EDTA; precipitated with anti-FLAG or anti-mGluR1a and protein-G sepharose; Western blot with anti-mGluR1a or anti-myc
[3] = target: metabotropic glutamate receptor 1a (mGluR1a), expressed from pRK5-mGluR1a in HEK-293 cells (UniProt P23385); experiment: as above

binding [1]: binds
Substance: metabotropic glutamate receptor 1a (mGluR1a), endogenous in hippocampus (from UniProt P23385 19-1199)

binding [2]: binds
Substance: metabotropic glutamate receptor 1a (mGluR1a), expressed from pRK5-mGluR1a in HEK-293 cells (from UniProt P23385 19-1199)

binding [3]: binds
Substance: myc-tagged TRPC4, expressed from pcDNA3.1-myc-TRPC4 in HEK-293 cells (from UniProt Q9UBN4 1-977)
